Assay results reported in publication PMC10441791.
Results are given in words; binding and its absence hold for the method and conditions named. Binding seen in cells or lysates may run through a third protein. Some binding calls cover weakened binding; strength is not graded here.

Protein sequences, listed by entry. Tags and fused reporters are not part of them.
UniProt P15682: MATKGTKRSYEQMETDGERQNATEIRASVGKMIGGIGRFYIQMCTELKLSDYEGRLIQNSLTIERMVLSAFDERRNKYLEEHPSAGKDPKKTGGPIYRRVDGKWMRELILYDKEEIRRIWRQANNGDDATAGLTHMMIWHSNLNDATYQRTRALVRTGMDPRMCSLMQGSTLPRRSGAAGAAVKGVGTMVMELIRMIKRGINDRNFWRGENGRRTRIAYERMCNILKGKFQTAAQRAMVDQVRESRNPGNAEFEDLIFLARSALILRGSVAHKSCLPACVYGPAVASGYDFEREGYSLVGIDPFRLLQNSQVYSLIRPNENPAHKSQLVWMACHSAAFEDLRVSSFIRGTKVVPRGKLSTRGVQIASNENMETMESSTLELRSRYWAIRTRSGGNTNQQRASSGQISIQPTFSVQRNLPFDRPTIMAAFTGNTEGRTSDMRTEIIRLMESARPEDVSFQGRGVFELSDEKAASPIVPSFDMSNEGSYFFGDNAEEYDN
UniProt P03427: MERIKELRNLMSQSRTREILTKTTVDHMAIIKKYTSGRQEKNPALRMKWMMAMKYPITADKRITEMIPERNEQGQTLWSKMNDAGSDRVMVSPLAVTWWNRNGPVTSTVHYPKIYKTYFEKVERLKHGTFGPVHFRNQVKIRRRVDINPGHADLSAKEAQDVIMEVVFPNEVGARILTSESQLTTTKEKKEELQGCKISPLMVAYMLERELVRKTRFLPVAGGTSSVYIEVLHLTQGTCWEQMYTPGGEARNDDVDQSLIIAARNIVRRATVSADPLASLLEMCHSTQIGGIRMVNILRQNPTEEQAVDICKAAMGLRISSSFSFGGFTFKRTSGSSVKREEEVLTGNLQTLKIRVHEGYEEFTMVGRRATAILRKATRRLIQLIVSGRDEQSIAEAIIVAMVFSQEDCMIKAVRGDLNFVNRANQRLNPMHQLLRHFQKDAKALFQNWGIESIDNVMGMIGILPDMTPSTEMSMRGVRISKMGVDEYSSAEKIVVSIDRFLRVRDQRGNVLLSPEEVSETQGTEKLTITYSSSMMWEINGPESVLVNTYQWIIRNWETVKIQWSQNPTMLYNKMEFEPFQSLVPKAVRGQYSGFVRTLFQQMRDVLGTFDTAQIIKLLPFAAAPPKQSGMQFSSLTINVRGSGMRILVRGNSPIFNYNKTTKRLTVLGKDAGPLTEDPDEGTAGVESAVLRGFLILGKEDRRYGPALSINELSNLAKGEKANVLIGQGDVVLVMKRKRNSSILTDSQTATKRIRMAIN
UniProt P03430: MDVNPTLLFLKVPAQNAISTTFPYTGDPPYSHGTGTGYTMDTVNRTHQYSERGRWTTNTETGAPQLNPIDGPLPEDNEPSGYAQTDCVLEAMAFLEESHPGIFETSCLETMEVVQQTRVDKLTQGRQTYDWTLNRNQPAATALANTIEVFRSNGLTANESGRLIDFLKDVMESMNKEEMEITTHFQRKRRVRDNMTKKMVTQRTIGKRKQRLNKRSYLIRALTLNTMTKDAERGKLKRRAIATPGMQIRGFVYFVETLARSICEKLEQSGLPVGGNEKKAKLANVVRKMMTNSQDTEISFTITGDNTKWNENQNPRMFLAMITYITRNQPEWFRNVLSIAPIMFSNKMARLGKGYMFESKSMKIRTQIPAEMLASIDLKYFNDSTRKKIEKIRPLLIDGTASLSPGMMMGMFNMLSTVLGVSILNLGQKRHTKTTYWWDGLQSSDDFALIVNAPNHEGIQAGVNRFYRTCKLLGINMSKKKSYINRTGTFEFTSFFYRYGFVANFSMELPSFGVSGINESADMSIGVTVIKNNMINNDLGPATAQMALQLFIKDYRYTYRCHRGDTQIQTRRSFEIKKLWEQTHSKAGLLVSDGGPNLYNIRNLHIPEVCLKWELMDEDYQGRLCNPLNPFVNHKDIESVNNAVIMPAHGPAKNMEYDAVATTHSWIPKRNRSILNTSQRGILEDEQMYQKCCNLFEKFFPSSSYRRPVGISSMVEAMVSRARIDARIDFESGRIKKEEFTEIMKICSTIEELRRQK

Molecular target: Myc-NP (nucleoprotein of influenza A/WSN/1933) (influenza A virus A/WSN/1933 (H1N1)) (UniProt P15682)
Assay: co-IP

Substance | binding
FLAG-PB2 (polymerase basic 2 of influenza A/WSN/1933) (from UniProt P03427 1-759) | binds
FLAG-PB1 (polymerase basic 1 of influenza A/WSN/1933) (from UniProt P03430 1-757) | binds
